# Details: Sample forming material 4; 1 µg organic compound (X), 50°C, 17 hours; some cells add '(Collapse of Crystal structure)'
smiles,measurement,value
c1ccc(CNCc2ccccc2)cc1 [Example 23],Ability to be analyzed for crystal structure,× (Collapse of Crystal structure)
